In paper PMC9160049, “Cryo-EM structures of Gid12-bound GID E3 reveal steric blockade as a mechanism inhibiting substrate ubiquitylation” (Nature Communications, 2022):
Results are given in words; binding and its absence hold for the method and conditions named. For some of these results: In cells and extracts the contact can be indirect. Some binding calls cover weakened binding; strength is not graded here. For some of these results: Sequences can lack the tags named with a protein.

Key:
[1] = biological target: T1, Gid4 (recombinant, untagged, co-expressed) (S. cerevisiae) (UniProt P38263); assay: cryo-EM structure; maps of Gid12-GID^SR4 (9.8 Å), Gid12-Chelator-GID^SR4 (19.4 Å) and Gid12-Cage-GID^SR4 (20.6 Å), complexes co-expressed in Hi5 cells and purified; docked with Gid12-SRS and prior structures; both purified
T1 sequence: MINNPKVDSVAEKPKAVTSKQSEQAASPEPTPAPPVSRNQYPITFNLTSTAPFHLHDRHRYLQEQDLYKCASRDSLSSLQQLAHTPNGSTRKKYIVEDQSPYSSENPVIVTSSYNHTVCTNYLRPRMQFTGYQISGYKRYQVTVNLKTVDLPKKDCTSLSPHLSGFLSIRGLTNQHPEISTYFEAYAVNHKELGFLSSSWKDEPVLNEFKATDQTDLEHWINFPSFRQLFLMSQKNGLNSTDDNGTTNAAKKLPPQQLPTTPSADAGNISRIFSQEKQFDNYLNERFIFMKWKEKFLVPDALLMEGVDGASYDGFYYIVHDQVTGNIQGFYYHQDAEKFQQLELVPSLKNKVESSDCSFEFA

[2] = biological target: T2, 2×Strep-Gid1 (Twin-Strep tag fused at the N-terminus of Gid1) (S. cerevisiae) (UniProt P53076); assay: pull-down; Hi5 insect cells co-expressing combinations of 2×Strep-Gid1, Gid8, Gid5, Gid4 and Gid10 (with Gid12); Strep-Tactin pulldown on Gid1, 4 °C; 50 mM Tris/HCl pH 7.5, 200 mM NaCl, 5 mM DTT; SDS-PAGE
T2 sequence: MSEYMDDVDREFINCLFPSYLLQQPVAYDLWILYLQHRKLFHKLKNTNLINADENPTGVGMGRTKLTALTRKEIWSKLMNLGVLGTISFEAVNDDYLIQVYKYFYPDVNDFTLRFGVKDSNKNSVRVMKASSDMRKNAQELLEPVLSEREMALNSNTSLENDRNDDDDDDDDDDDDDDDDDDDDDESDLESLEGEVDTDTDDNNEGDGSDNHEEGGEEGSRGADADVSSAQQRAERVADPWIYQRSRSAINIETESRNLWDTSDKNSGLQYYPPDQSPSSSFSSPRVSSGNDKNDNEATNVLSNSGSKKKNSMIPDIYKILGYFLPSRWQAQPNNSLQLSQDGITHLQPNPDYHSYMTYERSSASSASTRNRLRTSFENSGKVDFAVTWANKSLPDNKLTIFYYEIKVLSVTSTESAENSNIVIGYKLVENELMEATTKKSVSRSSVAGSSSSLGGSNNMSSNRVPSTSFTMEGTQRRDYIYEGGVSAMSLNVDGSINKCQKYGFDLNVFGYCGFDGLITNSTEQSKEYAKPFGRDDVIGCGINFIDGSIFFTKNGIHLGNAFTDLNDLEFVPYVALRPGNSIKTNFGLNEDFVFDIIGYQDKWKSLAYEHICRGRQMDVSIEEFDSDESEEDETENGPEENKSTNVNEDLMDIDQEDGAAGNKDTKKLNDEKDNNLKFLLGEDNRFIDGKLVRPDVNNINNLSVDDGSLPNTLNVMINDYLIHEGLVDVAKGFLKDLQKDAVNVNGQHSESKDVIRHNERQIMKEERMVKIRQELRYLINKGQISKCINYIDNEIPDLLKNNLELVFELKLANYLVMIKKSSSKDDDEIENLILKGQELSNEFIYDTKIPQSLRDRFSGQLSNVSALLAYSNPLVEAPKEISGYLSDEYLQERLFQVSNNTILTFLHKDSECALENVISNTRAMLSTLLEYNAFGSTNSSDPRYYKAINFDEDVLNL

[3] = biological target: T3, Strep-Gid5 (N-terminal Twin-Strep-tagged Gid5) (S. cerevisiae) (UniProt P40547); assay: pull-down; Hi5 insect cells co-infected with baculoviruses for all GID subunits, Gid12 and Moh1 or all but one; pulldown of GST-Gid1, Twin-Strep-Gid5 or Twin-Strep-Gid1 from lysate; 50 mM Tris-HCl pH 8.0, 200 mM NaCl, 5 mM DTT; SDS-PAGE, Coomassie
T3 sequence: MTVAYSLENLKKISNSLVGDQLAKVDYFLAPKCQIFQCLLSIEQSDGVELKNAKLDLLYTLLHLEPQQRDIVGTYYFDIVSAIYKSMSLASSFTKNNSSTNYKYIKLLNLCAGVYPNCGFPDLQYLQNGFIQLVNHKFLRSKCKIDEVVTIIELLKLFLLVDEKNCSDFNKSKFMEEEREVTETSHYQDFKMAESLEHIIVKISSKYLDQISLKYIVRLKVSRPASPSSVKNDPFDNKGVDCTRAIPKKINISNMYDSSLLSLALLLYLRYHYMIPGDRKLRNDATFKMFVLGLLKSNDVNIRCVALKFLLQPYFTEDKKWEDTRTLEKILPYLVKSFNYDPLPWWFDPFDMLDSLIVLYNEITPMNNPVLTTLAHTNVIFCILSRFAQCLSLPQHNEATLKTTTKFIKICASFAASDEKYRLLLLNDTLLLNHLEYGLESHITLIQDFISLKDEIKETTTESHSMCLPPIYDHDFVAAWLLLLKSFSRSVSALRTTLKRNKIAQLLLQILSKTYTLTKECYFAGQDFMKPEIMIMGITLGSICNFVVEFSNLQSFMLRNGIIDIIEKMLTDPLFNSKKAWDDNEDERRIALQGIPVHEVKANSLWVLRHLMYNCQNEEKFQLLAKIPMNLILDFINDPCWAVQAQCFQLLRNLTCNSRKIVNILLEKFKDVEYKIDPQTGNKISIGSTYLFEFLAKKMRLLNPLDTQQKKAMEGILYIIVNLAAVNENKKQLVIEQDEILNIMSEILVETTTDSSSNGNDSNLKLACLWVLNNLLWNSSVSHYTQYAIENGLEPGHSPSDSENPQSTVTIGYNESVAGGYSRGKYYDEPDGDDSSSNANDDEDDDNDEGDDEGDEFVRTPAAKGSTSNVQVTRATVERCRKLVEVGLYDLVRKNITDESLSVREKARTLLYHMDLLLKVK

[4] = biological target: T4, GST-Gid1 (N-terminal GST-tagged Gid1) (S. cerevisiae) (UniProt P53076); assay: as above
T4 sequence: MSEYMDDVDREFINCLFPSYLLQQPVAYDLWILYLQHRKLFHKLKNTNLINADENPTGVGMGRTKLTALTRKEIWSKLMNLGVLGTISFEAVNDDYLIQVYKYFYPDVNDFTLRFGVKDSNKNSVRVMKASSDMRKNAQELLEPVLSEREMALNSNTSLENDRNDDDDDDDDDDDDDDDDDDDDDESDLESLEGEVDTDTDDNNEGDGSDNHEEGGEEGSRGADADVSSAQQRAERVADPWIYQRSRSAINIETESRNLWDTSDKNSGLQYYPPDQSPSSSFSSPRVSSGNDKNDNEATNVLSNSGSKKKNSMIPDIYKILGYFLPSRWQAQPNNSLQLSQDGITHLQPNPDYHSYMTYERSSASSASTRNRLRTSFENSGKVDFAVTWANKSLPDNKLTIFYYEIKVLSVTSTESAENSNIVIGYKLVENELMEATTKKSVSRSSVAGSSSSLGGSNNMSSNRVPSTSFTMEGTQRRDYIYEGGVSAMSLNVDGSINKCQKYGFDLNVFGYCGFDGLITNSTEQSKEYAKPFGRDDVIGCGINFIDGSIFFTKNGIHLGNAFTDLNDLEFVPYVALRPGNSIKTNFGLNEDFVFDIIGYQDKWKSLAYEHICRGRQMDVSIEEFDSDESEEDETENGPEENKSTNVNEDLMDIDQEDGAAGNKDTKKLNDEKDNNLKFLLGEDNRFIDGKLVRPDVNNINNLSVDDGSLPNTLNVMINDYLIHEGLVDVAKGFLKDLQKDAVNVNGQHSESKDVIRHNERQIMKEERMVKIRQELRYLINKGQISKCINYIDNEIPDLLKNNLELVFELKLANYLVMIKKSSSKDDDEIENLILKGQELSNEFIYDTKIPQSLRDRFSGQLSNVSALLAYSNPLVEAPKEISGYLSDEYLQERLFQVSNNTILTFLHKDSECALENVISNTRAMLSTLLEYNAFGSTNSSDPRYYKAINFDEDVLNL

[5] = biological target: T5, Gid5 (recombinant, untagged, co-expressed) (S. cerevisiae) (UniProt P40547); assay: cryo-EM structure; Gid12-SRS (Gid12-Gid4-Gid5-Gid1-Gid8) co-expressed in Hi5 cells and purified as a complex; 3.3 Å; 25 mM MES pH 6.5, 150 mM NaCl, 1 mM DTT; both purified
T5 sequence: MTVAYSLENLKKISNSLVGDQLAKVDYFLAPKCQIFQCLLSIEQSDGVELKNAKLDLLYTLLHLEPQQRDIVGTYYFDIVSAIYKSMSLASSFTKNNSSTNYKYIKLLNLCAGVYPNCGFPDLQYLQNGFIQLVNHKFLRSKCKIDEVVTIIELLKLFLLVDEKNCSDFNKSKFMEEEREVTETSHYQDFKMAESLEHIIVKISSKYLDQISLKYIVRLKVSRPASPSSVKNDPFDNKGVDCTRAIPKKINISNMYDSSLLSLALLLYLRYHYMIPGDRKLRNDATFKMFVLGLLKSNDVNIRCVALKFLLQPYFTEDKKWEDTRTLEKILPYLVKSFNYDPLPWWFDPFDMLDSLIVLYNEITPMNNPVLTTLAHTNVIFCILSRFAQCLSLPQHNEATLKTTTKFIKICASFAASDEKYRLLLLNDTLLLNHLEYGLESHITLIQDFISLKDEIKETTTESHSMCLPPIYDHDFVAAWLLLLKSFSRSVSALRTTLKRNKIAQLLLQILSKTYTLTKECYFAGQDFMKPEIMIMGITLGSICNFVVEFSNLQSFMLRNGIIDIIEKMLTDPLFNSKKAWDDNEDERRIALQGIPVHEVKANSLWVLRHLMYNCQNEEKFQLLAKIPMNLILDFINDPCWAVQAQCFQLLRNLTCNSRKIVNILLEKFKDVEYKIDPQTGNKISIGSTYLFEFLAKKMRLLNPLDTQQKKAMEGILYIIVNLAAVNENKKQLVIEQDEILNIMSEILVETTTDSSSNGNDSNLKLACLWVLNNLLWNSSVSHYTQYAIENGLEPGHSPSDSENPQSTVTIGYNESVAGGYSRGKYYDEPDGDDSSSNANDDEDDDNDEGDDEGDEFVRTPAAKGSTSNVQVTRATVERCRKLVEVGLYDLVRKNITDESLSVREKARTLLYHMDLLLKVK

[6] = biological target: T1, Gid4 (recombinant, untagged, co-expressed) (S. cerevisiae); assay: as above
[7] = biological target: T6, 2×Strep-Gid4 (S. cerevisiae) (UniProt P38263); assay: pull-down; 2×Strep-Gid4 and Gid12 co-expressed in Hi5 cells; subcomplex purified by Strep-Tactin affinity chromatography and SEC; 25 mM HEPES pH 7.5, 150 mM NaCl, 1 mM DTT
T6 sequence: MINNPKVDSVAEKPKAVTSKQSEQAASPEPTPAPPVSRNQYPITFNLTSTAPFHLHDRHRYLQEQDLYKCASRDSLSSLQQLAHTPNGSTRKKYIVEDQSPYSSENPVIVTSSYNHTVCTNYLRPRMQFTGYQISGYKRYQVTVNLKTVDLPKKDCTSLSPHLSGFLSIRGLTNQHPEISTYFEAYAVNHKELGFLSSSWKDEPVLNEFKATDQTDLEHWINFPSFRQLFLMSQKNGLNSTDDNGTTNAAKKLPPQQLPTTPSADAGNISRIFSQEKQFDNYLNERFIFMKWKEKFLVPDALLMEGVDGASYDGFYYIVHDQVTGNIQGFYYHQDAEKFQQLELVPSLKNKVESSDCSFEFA

Measured: binding

B1: Gid12-9×cMYC (natural protein, S. cerevisiae (endogenous in BY4741), UniProt Q12027 1-708, looked up)
chain: MATGRIQFAVSTPCNTKGKPSGYRLFEFKNDRLALVPSERGCTKVDVNANIQAFCYLRPNGRDTSISPDATHILDSCDYMVLAKSNGFIEIISNYQYKIKNGLRLAPSYILRCTPEDFESNFFSDYMIAGLEYSQGLLYCCMCSGRIYVFVMNLPTDYIQYKNMYNPMFPDCFFKVHHDNNTTHSSEEEKLFEGSTRYTGRSCSKHICYFLLPIEPSHLRSSPVVSSFCNMYQGLPIYRPSMYLHIERGISTFHINPLDRFCFMTVSPRSPLFIRKIILPLTYVTFLSTFISLKNSIQGDTCGEILSWDNVAQQNGFGSLFSWISNKFTFDTDIINSTIWDDIVKYSGTGMLDSGIVWKQRQGHAKDDIYELFHTQDMLGSSRRNSSFSTASSEPRPLSRRRRESFQALTRDAFRERMDVPCSTKWELDSFIRGLRRNTFMVDFEIVEKISHRNGNDGVNEDDNTTDESDETMTSFLTDNYKKMDIVCIDHFVTLSAFRPRYYDEPIIKIDSLSNKNGSENGTNEEEWAESQMKVDGQVIDDETAQFKQALGNLCSFKKLFMLDDSLCFILDTHGVLLINRFEIKNTKNLLRNSKDTIRIIPHDFGLINDTIVIINDIDVGTDNVCALTFHLVVTSMAGEITVLKGEFFKNCRLGRIKLCDSLKLNRKDRFVDKLALIDYDGLNAQKRRLDYDEKDLYTFIVKKVKRD
notes: Gid12 (Ipf1, YDL176W), S. cerevisiae, tagged at the endogenous locus; The strain name is written GID12-9×cMYC; source: endogenous locus, BY4741 GID12-9×cMYC::kanMX4, 3×HA-GID4 yeast, in lysate
binds: all assays above
